Assay results reported in article PMC12831199.
Results are given in words; binding and its absence hold for the method and conditions named. In cells and extracts the contact can be indirect. Binding can be weak; no strength is given.

The chains behind the UniProt entries cited, without tags or fusion partners. Where a name states a change or a piece, a line headed by the entry shows the natural chain unless it says otherwise. Residues count along the entry.
UniProt P23201, residues 1-124: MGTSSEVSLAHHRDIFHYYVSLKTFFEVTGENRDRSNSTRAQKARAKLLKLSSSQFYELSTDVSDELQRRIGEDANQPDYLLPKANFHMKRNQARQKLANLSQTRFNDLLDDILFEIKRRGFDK
UniProt Q12317: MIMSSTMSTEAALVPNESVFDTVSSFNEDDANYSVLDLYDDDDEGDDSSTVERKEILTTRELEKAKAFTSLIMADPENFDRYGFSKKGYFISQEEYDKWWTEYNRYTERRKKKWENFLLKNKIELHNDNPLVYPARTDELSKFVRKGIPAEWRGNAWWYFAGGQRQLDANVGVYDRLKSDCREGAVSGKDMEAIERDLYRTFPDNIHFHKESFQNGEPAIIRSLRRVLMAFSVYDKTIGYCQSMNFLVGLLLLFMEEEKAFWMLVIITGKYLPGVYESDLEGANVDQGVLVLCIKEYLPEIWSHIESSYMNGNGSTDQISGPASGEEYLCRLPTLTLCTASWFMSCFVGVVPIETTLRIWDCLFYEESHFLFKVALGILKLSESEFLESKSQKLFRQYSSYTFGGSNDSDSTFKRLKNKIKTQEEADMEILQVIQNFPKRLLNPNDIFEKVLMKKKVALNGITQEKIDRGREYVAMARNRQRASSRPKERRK

Molecular target: SHD1CRU (Saccharomyces cerevisiae) (UniProt P23201)
Test: split reporter; small-scale Split-Ub: diploid cells co-expressing a Nub and a CRU fusion spotted in 10-fold serial dilutions from OD600=1 on SD medium with 5-FOA, 30°C, 2-5 days

binding: binds
Substance: Nub fusion of Msb4 with the D0A exchange (from UniProt Q12317)
